Data reported in article PMC10508264, “Exploring the antioxidant, antimicrobial, cytotoxic and biothermodynamic properties of novel morpholine derivative bioactive Mn(II), Co(II) and Ni(II) complexes – combined experimental and theoretical measurements towards DNA/BSA/SARS-CoV-2 3CL^Pro” (RSC Medicinal Chemistry, 2023).

Key:
EB–DNA = EB–DNA competitive fluorescence emission titration; format: binding; conditions: for n, number of binding sites (SV method II), DNA: EB–DNA; for P, ratio of fluorescence quantum efficiency, DNA: intercept of F/F0 vs 1/[DNA]
Method: Titrations were performed for all tested compounds (1–200 μM) with pre-incubated EB-bound DNA and the intensity variations between 510 nm and 610 nm were carefully monitored in the presence and absence of DNA (200 μM) during the initial emission and excitation by EB.[31]
Fluorescence emission spectral titration is an efficient approach to evaluating the binding properties of DNA/BSA biomolecules. In general, the fluorescence of EB is quite weak in aqueous solution, but when it is bound to DNA, the fluorescence intensity rises. However, it is a well-known imperative intercalator and is more supportive in distinguishing the binding strength of non-fluorescence test substances. Also, the fluorescence emission spectra of the EB–DNA adduct were examined at 610 nm in the absence and presence of rising quantities of each test compound. When the complex concentration (0–240 μM) rises, the fluorescence intensity of the EB-bound DNA complex diminishes owing to the displacement of EB from CT-DNA. A notable reduction in the fluorescence emission intensity at 610 nm is observed (Fig. S26 ^† and Table 4). The photoelectron shift from DNA's guanine base to the excited states may be the cause of the frequency quenching in the emission of the test substance by DNA. […] Therefore, the competitive binding experiment can make use of EB as a fluorescent probe. […] This is further evidence that complexes (1–3) strongly bind intercalatively with DNA. The observed results agree well with the data from electronic absorption spectral measurements. Additionally, the experiment was extended to examine the binding properties between the test substance and BSA. BSA mostly contains three amino acid residues (tyrosine, tryptophan, and phenylalanine), which give it its inherent fluorescence. […] These two residues also have minimal quenching effects. Tryptophan in BSA fluoresces mostly because of a residue that is trapped inside a hydrophobic cavity. Therefore, it is crucial to model potential binding interactions with the metal complexes. […] The fluorescence intensity also reduces while the test substances (1–3) are steadily blended with the BSA solution, proving that complexes (1–3) interact with BSA via altering the protein's secondary structure, which also leads to an alteration in the tryptophan environment of BSA (Fig. S27 ^†). Furthermore, BSA structural similarities share 76% sequence identity with human serum albumin (HSA), the most prevalent protein in blood plasma that transports ions and proteins to cells and tissues. HSA is able to readily crystallize under the trivalent cations, but BSA has no ready crystallizing property. However, they consist of parallel physicochemical properties to each other.[74,75] Additionally, the Stern–Volmer eqn (12) and (13) were employed to analyze the data (Fig. S28 ^† and Table 4). Additionally, the kq values for DNA and BSA binding were acquired in the range of 1.1636–2.8863 × 10^12 and 2.6390–7.0774 × 10^12 mol^−1 s^−1, respectively. They are also much greater than the collision quenching constant value (2.0 × 10^10 mol^−1 s^−1). Therefore, it is assumed that the static quenching process was brought on by adduct construction between the test compounds and BSA rather than a dynamic collision. However, fluorescence spectroscopy is generally plagued by the inner filter effect (IFE), disturbing spectral analysis. The energizing ray is attenuated due to the highly concentrated solution sample. As a result, strong fluorescence is only seen on surfaces facing the excitation beam.

A549 = assay: MTT cell viability assay, A549; format: cell-based, human; conditions: NHDF vs A549
MCF-7 = assay: MTT cell viability assay, MCF-7; format: cell-based, human; conditions: NHDF vs MCF-7

## [Mn+2].[O-]c1ccccc1N=Cc1ccc(N2CCOCC2)cc1.[O-]c1ccccc1N=Cc1ccc(N2CCOCC2)cc1.c1ccc(-c2ccccn2)nc1 [(1)]
EB–DNA
  Scatchard analysis n: 0.983
  n, number of binding sites (SV method II), DNA: 1.037
  P, ratio of fluorescence quantum efficiency, DNA: 0.0902
A549
  SI (IC50 normal cells/IC50 cancer cells): 2.03
MCF-7
  SI (IC50 normal cells/IC50 cancer cells): 2.09

## [Co+2].[O-]c1ccccc1N=Cc1ccc(N2CCOCC2)cc1.[O-]c1ccccc1N=Cc1ccc(N2CCOCC2)cc1.c1ccc(-c2ccccn2)nc1 [(2)]
EB–DNA
  Scatchard analysis n: 1.056
  n, number of binding sites (SV method II), DNA: 1.104
  P, ratio of fluorescence quantum efficiency, DNA: 0.1516
A549
  SI (IC50 normal cells/IC50 cancer cells): 2.16
MCF-7
  SI (IC50 normal cells/IC50 cancer cells): 2.06

## [Ni+2].[O-]c1ccccc1N=Cc1ccc(N2CCOCC2)cc1.[O-]c1ccccc1N=Cc1ccc(N2CCOCC2)cc1.c1ccc(-c2ccccn2)nc1 [(3)]
EB–DNA
  Scatchard analysis n: 0.971
  n, number of binding sites (SV method II), DNA: 1.024
  P, ratio of fluorescence quantum efficiency, DNA: 0.0950
A549
  SI (IC50 normal cells/IC50 cancer cells): 2.20
MCF-7
  SI (IC50 normal cells/IC50 cancer cells): 2.13

## Oc1ccccc1N=Cc1ccc(N2CCOCC2)cc1 [(HL), 2-(4-morpholinobenzylideneamino)phenol]
EB–DNA
  Scatchard analysis n: 1.158
  n, number of binding sites (SV method II), DNA: 0.973
  P, ratio of fluorescence quantum efficiency, DNA: 0.0899
A549
  SI (IC50 normal cells/IC50 cancer cells): 1.65
MCF-7
  SI (IC50 normal cells/IC50 cancer cells): 1.98
